Source: ChEMBL document CHEMBL3988442, “University of Dundee, Small-Polar-MMV Screening Library” (2021).

Amino acid sequences for entries named in this document (tags omitted).
UniProt I6X8D2, whole entry: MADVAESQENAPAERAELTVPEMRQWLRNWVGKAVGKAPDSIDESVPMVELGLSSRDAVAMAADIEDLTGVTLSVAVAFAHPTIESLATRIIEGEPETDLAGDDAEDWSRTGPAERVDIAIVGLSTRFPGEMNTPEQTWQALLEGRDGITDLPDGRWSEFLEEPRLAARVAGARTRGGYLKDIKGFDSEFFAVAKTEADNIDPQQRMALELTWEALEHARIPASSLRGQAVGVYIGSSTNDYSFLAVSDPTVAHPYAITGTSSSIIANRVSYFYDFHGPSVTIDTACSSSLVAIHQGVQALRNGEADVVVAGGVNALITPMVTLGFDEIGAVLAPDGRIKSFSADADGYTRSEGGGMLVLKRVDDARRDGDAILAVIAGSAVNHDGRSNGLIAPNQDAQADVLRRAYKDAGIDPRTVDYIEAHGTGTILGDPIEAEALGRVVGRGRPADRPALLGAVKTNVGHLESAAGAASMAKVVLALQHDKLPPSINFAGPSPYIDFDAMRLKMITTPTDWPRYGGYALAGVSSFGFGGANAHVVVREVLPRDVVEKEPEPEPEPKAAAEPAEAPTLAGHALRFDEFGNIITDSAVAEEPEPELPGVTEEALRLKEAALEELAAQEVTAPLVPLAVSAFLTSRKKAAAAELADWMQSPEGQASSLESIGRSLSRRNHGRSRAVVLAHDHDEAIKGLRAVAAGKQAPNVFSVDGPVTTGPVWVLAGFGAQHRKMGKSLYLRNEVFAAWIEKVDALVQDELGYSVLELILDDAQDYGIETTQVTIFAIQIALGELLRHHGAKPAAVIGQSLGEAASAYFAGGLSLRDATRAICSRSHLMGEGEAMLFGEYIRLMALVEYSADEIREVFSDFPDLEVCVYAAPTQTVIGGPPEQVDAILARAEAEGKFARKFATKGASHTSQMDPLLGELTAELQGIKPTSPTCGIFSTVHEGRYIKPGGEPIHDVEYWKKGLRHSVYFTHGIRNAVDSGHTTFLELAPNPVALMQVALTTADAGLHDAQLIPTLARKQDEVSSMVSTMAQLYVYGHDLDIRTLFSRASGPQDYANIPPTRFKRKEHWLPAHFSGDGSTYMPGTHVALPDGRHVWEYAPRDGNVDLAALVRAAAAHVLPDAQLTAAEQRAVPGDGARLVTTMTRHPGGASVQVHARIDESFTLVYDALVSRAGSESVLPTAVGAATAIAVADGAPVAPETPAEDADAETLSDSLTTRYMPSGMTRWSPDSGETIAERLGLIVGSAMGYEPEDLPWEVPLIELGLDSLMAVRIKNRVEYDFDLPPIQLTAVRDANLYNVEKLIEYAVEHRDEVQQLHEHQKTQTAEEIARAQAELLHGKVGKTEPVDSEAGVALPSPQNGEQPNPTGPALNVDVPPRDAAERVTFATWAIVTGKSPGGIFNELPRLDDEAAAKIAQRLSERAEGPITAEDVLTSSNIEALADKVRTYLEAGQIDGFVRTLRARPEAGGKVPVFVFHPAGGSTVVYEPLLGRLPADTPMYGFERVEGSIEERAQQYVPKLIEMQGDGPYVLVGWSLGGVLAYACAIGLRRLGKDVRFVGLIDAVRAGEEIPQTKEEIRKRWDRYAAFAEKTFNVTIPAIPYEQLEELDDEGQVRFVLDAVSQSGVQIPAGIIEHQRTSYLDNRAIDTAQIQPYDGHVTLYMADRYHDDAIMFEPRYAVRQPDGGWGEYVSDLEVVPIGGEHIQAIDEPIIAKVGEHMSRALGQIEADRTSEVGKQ
UniProt P9WPC5, whole entry: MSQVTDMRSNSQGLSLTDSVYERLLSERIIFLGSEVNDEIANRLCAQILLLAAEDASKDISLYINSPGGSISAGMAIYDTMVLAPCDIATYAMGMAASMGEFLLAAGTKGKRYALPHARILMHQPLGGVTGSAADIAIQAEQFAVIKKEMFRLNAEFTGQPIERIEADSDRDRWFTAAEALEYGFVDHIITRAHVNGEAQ
UniProt P9WPC3, whole entry partner: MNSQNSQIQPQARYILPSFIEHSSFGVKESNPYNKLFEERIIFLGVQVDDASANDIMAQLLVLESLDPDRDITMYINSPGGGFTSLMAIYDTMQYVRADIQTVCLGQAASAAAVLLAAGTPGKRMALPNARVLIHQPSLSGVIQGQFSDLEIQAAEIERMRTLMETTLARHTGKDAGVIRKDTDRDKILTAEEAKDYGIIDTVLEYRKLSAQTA

Leishmania in macrophages: 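Cell assay of Leishmania donovani living inside macrophages; the read-out is not stated. Tested at 30 µM. Direction is inferred from retests: higher values go with stronger inhibition. Size under these conditions: about 69,000 compounds, about 1,000 of them at 50% or above in at least one test.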
Pks13 thioesterase: 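Polyketide synthase Pks13, Mycobacterium tuberculosis (UniProt I6X8D2). Enzyme assay of the thioesterase domain of polyketide synthase 13; the read-out is not stated. Concentration: 30 µM. The record gives no direction; the compounds picked for IC50 retests had high values, so higher reads as stronger inhibition. Size under these conditions: about 67,000 compounds, about 300 of them at 50% or above in at least one test.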
ClpP1P2: 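Protease assay of ClpP1P2, read by the AMC dye that it sets free. Target: ClpP1P2, Mycobacterium tuberculosis (UniProt P9WPC5 and UniProt P9WPC3). Tested at 50 µM. Higher reads as stronger inhibition, judged from the few compounds that gave an IC50. Most other retested compounds had strongly negative values. Size under these conditions: about 69,000 compounds, about 10 of them at 50% or above in at least one test.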
T. brucei: 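Whole-parasite assay of Trypanosoma brucei over 72 hours; the read-out is not stated. Compounds at 30 µM. The record gives no direction; compounds that gave an IC50 in retests scored well above the rest, so higher reads as stronger inhibition. Values scatter widely below zero; nearly all retest evidence comes from the higher of the two concentrations used. Size under these conditions: about 64,000 compounds, about 940 of them at 50% or above in at least one test.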

Each number is a percent effect as filed. The record does not define 0% and 100%; most values in the screen are far below 50% and negative numbers occur (in some assays of this library far below -100). The compounds are a random part of those screened. Two or more numbers in one place are separate tests of the same structure; such repeats can differ widely. A dash means the value is not listed here; it may have been measured.

| Compound | Leishmania in macrophages | Pks13 thioesterase | ClpP1P2 | T. brucei |
|---|---|---|---|---|
| `CNS(=O)(=O)CCCN1CCN(C(C#N)c2ccccc2)CC1` (stereo not drawn) | -27.25 | -3.353 | -13.02 | -31.91 |
| `Cc1ccsc1CN1CCn2c(COc3cccnc3)cnc2C1C.O=C(O)C(F)(F)F.O=C(O)C(F)(F)F` (stereo not drawn) | 9.193 | - | - | 1.759 |
| `O=C(O)C(F)(F)F.[H][C@@]12CC(COCc3cccnc3)C[C@@]1([H])N(S(=O)(=O)C1CC1)CCO2` (stereo partly drawn) | 24.07 | - | - | -45.04 |
| `CC(c1nc(C2CC2)no1)N1CCN(Cc2noc(C3CC3)n2)CC1` (stereo not drawn) | -8.204 | 1.458 | -12.75 | - |
| `CCOc1ccc(CC(=O)N2CCN(c3nccn3CC)CC2)cc1` | - | -20.53 | 14.52 | - |
| `CN(CC(=O)N1CCCC1c1cnn(C)c1)Cc1ccccc1` (stereo not drawn) | 15.59 | -2.632 | -1.833 | -11.48 |
| `CC(C)n1ccnc1CN1CCCN(C(=O)COC2CCCC2)CC1` | 17.97 | -11.41 | -2.11 | 11.48 |
| `CC(=O)NCC1CCN(Cc2nc(C3CC3)no2)CC1` | 15.68 | -5.874 | 5.528 | -4.678 |
| `O=C(NCCc1cccnc1)Nc1cc(C(F)(F)F)c[nH]c1=O` | 13.35 | -35 | -27.59 | - |
| `Cc1noc(NC(=O)c2ccc(C#N)cc2)n1` | -15.23 | -20.83 | -18.14 | -1.812 |
| `Fc1cc(CCNc2ccc3nccn3n2)c2c(c1)COCO2` | -10.42 | -5.897 | -9.697 | -75.45 |
| `Cn1ccnc1CN1CCC(CNS(=O)(=O)c2cccnc2)C1` (stereo not drawn) | -0.5906 | 15.65 | 10.3 | -35.83 |
| `COc1ccc(OC)c(C(O)CN2CCC(N3CCC(C)CC3)CC2)c1` (stereo not drawn) | 0.3443 and 1.436 | -7.785 | 7.394 | -9.873 |
| `[H][C@@]12COC[C@]1(C(=O)NCc1cccs1)CN(Cc1cnn(C)c1)C2` | 1.214 | - | - | -44.34 |
| `CCOc1ccccc1C(CC(=O)Nc1ccccn1)NC(C)=O` (stereo not drawn) | 21.32 | 2.152 | -12.58 | -8.579 |
| `CCOCC(O)CN1CCN(C(=O)c2cc(F)ccc2C)CC1` (stereo not drawn) | 0.9586 | -0.3666 | 4.127 | -0.6704 |
| `CCOc1ccnc(N2CCN(C(=O)c3cccc(C#N)c3)CC2)n1` | -20.97 | -6.926 | 0.04413 | 20 |
| `Cc1cc(C2CCCN2CCC(=O)N2CCc3sccc3C2)no1` (stereo not drawn) | -20.38 | -9.518 | -22.54 | -3.014 |
| `CCOC1COC2(CCN(Cc3cccnc3OC)CC2)C1.O=C(O)C(F)(F)F.O=C(O)C(F)(F)F` (stereo not drawn) | 13.84 | - | - | -40.17 |
| `CO[C@H]1CN(C(=O)c2ccc3oc(C)cc3c2)C[C@@]12CCCO2` | 14.65 and 12.76 | 16.61 | -3.977 | 16.63 |
| `CCS(=O)(=O)N1CCC2(CCC(N3CCCC3)c3ccccc32)CC1` (stereo not drawn) | - | -29.33 | 1.63 | - |
| `NC(=O)COc1ccc(CN2CCC(O)(CN3CCCCC3)C2)cc1Cl` (stereo not drawn) | 6.611 | -22.15 | -11.93 | -36.35 |
| `c1ccc(CO[C@H]2CO[C@@]3(CCN(Cc4ccoc4)C3)C2)nc1` | - | -24.2 | 4.724 | - |
| `CC(C(=O)NCc1ccc(-n2cncn2)nc1)S(C)(=O)=O` (stereo not drawn) | -14.6 | -3.283 | 4.963 | -4.449 |
| `CN(C)c1ccc(CC(=O)N2C[C@H](C3CC3)[C@@H](N)C2)cc1` | 35.25 | -4.576 | -4.248 | 6.003 |
| `CCN(CC)C(=O)Nc1ccc(N2CCSCC2)cc1C` | -24.37 | -9.467 | -11.22 | -43.56 |
| `COc1ncccc1CN1Cc2nnn(C)c2C(COCC2CC2)C1.O=C(O)C(F)(F)F.O=C(O)C(F)(F)F` (stereo not drawn) | 10.5 | - | - | -11.61 |
| `COc1ccc(CN(C)C2CCN(C(=O)C(C)C)CC2)c2cccnc12` | 12.54 | -35.47 | 0.423 | -27.31 |
| `CC1CCN(C(=O)Cn2cc(I)cn2)CC1` | -16.24 | -11.49 | -1.267 | -2.828 |
| `CNC(=O)Cc1csc(NC(=O)C2CSCCC(=O)N2)n1` (stereo not drawn) | -5.29 and -3.073 | 3.837 | 1.32 | -40.71 |
| `O=C(CN1CCc2c(ncn2C2CC2)C1)NC1CCOCC1` | 13.07 | -14.92 | -2.55 | - |
| `CC(C)c1ocnc1C(=O)N1CCC(=O)Nc2cccnc21` | 6.946 | -16.48 | -5.98 | -2.947 |
| `COCCN(C)C(=O)Nc1ccc(C(=O)NCCC(=O)OC)cc1` | 19.8 | -28.23 | -1.79 | -15.21 |
| `CCN(CC)C(=O)[C@@H]1C[C@@H](N)CN1c1nc(N(C)C)nc(C)c1C` | 18.72 | -22.88 | 1.933 | 10.59 |
| `Cc1cc(N2CCC(NC(C)Cc3ccsc3)CC2)nc(C)n1` (stereo not drawn) | 70.01 | -5.74 | -11.02 | 18.53 |
| `Cc1csc(C2CCCN(C(=O)c3c(C)nn4cccnc34)C2)n1` (stereo not drawn) | -20.51 | -2.3 | -28.44 | -5.29 |
| `[H][C@@]12CCN(C(=O)c3cccnc3OC)C[C@@]1([H])O[C@@H](c1ccncn1)C2` | 21.03 | - | - | 0.3417 |
| `[H][C@@]12CN(c3ccc(C)nn3)C[C@]1([H])OCCN2Cc1c(C)noc1C` | 27.28 | - | - | -47.55 |
| `O=S(=O)(CCNC1CCc2ncnn2C1)c1ccc(Cl)cc1` (stereo not drawn) | 33.74 | 0.7434 | -9.586 | - |
| `CC(C)C1CN(C(=O)c2ccc3nccnc3c2)CCS1` (stereo not drawn) | -12.22 | -23.74 | -1.775 | -20.4 |
| `COCCO[C@H]1CCN(C(=O)c2cnoc2C)[C@H]1Cc1cnn(C)c1` | 25.53 | -7.703 | -1.418 | -30.38 |
| `COCC1CN(Cc2cc(C)on2)Cc2cnn(C)c21.O=C(O)C(F)(F)F.O=C(O)C(F)(F)F` (stereo not drawn) | 4.61 | - | - | -0.1658 |
| `Cc1cc(N2CCC(c3n[nH]c4nccnc34)C2)ncn1` (stereo not drawn) | 5.681 and 2.347 | -18.21 | -2.082 | -30.56 |
| `O=C(O)C(F)(F)F.O=C(O)C(F)(F)F.[H][C@@]12COC[C@]1([H])[C@@H](OCCN(C)C)CN2Cc1ccc2c(c1)OCO2` | -1.816 | - | - | -17.2 |
| `COc1ncc(-c2nccn2C(C)CCn2cccn2)cn1` (stereo not drawn) | 51.46 | - | -3.042 | -7.022 |
| `O=C(O)C(F)(F)F.[H][C@@]12COC[C@]1(COc1cccnc1)CN(C(=O)c1ccc(F)cc1)C2` | 16.14 | - | - | -27.71 |
| `Cc1cc(C(=O)N2CCc3nnc(N)cc3C2)c(C)n1C1CC1` | 19.2 | 6.35 | 2.004 | 15.69 |
| `Cc1cc(C(=O)NCCN2CCCC(C)C2)nn1C` (stereo not drawn) | 6.557 | -6.547 | 1.92 | 8.496 |
| `Cc1ccc2c(c1)C(NC1CC1)CC21CCNCC1` (stereo not drawn) | - | -2.242 | -5.977 | - |
| `OC1(CNCCN2CCc3ccccc32)CNCCOC1` (stereo not drawn) | 12.43 | -8.5 | -0.6121 | 16.4 |
| `Cc1nnc2n1CCN(Cc1csc(Cc3ccccc3)n1)C2` | 5.384 | -12.65 | 0.66 | 15.28 |
| `CCc1cc(=O)n(CC(=O)N2CCCC2)c(-c2ccccc2)n1` | 20.82 | 0.9561 | -25.18 | 15.51 |
| `CC(c1nc(C2CC2)no1)N1CCN(Cc2cccnc2)CC1` (stereo not drawn) | 6.96 | -2.23 | 3.271 | -7.587 |
| `CN(C)CCN1CCCC12CCCN(C(=O)c1cccnc1)C2` (stereo not drawn) | - | -14.15 | -0.7623 | - |
| `Cn1ccc(C(=O)N2CCCC(Cc3cnc4ccccc4c3)C2)n1` (stereo not drawn) | -11.73 and 24.18 | -8.445 | 5.38 | 27.45 |
| `CN1CCc2c(C#N)c(NCCN3CCOCC3)n3cnnc3c2C1` | 4.234 and 21.03 | 3.193 | -15.52 | -20.39 |
| `Cc1cc(NC(=O)CN2CCN(c3nccs3)C(C)C2)n(C)n1` (stereo not drawn) | 14.17 | -5.754 | 12.05 | 14.98 |

For reference, 5 entries once more:

With CCN(CC)C(=O)[C@@H]1C[C@@H](N)CN1c1nc(N(C)C)nc(C)c1C the screen gave Leishmania in macrophages: 18.72%; Pks13 thioesterase: -22.88%; ClpP1P2: 1.933%; T. brucei: 10.59%.
With c1ccc(CO[C@H]2CO[C@@]3(CCN(Cc4ccoc4)C3)C2)nc1 the screen gave Pks13 thioesterase: -24.2%; ClpP1P2: 4.724%.
With Cc1csc(C2CCCN(C(=O)c3c(C)nn4cccnc34)C2)n1 (stereo not drawn) the screen gave Leishmania in macrophages: -20.51%; Pks13 thioesterase: -2.3%; ClpP1P2: -28.44%; T. brucei: -5.29%.
With O=S(=O)(CCNC1CCc2ncnn2C1)c1ccc(Cl)cc1 (stereo not drawn) the screen gave Leishmania in macrophages: 33.74%; Pks13 thioesterase: 0.7434%; ClpP1P2: -9.586%.
With O=C(CN1CCc2c(ncn2C2CC2)C1)NC1CCOCC1 the screen gave Leishmania in macrophages: 13.07%; Pks13 thioesterase: -14.92%; ClpP1P2: -2.55%.